Laboratory results reported in the supplement of paper PMC12823440, “Inhibitors supercharge kinase turnover through native proteolytic circuits” (Nature, 2025).
Where a name gives a salt, the structure may show the parent alone. The list shows a part of the results. The calls rarely recur for the same compound in another form.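 Kinases were expressed as nanoluciferase fusions in K562 cells and luminescence was read every 4 h between 2 and 18 h as percent of control, DMSO set to 100% and a positive control to 0%. A time point counts as decreased when the signal drops significantly (2 sigma). The hit call is the authors' own, does not follow from the count of time points alone, and its rule is not shown.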

Chains of the proteins cited; added tags and fusions are not shown. Lines headed by an entry give the natural chain unless they say otherwise; changes in a name come on top.
UniProt P48729: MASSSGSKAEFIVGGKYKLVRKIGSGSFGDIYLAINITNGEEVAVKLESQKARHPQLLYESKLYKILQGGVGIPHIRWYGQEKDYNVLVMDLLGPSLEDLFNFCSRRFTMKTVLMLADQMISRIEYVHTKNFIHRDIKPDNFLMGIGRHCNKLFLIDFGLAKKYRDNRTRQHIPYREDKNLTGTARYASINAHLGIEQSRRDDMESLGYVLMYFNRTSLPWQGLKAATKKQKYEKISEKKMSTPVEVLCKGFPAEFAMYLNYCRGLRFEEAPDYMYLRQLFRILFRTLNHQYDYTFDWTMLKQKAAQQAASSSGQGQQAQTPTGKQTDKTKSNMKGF
UniProt P48730: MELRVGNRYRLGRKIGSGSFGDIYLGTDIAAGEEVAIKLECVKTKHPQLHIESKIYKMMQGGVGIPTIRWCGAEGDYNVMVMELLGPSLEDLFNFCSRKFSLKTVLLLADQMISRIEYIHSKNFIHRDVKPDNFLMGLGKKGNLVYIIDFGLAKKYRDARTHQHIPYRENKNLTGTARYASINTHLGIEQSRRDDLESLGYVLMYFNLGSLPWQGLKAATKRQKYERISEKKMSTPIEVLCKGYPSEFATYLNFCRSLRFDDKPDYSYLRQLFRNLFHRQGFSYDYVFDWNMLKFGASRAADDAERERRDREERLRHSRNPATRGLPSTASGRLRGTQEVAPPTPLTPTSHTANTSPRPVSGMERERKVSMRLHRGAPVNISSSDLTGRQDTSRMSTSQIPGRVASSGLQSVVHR
UniProt Q08345: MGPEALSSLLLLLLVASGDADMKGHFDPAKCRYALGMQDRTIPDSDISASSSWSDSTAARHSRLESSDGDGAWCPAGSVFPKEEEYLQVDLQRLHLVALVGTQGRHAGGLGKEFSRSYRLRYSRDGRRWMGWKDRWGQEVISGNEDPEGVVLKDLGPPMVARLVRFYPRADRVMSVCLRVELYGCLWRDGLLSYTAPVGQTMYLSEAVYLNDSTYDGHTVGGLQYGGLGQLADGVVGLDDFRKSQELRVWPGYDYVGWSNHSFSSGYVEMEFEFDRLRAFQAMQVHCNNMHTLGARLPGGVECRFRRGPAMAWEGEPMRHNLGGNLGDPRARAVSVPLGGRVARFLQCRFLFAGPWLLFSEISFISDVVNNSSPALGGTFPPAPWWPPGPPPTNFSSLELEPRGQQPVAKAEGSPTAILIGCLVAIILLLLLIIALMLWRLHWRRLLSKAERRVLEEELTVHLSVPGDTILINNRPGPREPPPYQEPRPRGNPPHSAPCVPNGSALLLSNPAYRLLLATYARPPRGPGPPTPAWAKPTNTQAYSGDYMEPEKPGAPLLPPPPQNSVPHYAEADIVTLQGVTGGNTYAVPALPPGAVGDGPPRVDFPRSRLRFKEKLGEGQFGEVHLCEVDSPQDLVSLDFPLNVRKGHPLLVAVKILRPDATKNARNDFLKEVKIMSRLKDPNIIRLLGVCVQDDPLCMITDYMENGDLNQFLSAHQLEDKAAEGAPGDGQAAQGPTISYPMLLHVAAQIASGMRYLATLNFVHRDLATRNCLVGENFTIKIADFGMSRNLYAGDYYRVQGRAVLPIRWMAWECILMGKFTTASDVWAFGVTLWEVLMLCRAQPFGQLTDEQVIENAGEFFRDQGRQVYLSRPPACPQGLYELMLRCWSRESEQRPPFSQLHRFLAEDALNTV
UniProt Q9Y463, whole entry, looked up: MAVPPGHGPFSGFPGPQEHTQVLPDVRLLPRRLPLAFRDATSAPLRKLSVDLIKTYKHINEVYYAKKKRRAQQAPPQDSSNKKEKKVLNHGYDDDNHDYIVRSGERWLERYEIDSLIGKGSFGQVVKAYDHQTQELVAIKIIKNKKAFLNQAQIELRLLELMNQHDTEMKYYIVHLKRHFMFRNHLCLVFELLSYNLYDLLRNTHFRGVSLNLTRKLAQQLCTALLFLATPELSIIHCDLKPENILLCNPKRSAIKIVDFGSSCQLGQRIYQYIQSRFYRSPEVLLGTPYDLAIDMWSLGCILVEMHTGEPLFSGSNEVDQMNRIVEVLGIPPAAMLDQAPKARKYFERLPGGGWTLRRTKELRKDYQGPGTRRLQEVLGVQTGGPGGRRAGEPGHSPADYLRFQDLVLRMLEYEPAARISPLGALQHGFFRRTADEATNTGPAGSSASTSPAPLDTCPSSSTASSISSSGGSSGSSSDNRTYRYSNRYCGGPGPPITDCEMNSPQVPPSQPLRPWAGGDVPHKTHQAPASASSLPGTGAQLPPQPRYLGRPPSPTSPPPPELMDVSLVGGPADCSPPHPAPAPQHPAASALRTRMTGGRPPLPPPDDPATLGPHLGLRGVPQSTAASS
UniProt Q92630: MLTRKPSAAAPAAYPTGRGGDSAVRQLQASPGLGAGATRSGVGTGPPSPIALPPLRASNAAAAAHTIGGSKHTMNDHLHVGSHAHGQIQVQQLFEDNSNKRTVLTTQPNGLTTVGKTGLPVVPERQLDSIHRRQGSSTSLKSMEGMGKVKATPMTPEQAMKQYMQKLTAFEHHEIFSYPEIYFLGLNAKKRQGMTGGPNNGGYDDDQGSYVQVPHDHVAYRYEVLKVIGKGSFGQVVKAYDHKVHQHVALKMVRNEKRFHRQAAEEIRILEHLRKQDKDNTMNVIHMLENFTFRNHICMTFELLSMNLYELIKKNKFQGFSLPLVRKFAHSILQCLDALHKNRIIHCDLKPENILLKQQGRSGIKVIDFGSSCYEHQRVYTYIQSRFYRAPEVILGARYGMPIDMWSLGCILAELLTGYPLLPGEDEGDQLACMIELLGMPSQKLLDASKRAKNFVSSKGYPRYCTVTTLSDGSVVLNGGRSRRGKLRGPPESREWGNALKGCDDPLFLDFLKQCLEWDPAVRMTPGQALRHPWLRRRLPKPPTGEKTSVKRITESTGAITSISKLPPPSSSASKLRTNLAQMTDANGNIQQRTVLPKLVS

Tests used:
Assay in all cases: number of time points (of 5) at which kinase-Nluc abundance scored as decreased, DMSO-normalised (count); higher = more persistent destabilization
Details in all cases: K562; 2-18 h
[1] = biological target: CSNK1A1 (UniProt P48729)
[2] = biological target: CSNK1D (UniProt P48730)
[3] = biological target: DDR1 (UniProt Q08345)
[4] = biological target: DYRK1B (UniProt Q9Y463)
[5] = biological target: DYRK2 (UniProt Q92630)
[6] = biological target: EGFR (UniProt P00533)
[7] = biological target: EGFR_G719S (UniProt P00533)
[8] = biological target: EGFR_G719S_T790M (UniProt P00533)
[9] = biological target: EGFR_L718V (UniProt P00533)
[10] = biological target: EGFR_L858R (UniProt P00533)

Measured: number of time points

COc1ccc(OC)c(C2C(C#N)=C(N)Oc3n[nH]c(-c4ccc5ccccc5c4)c32)c1 (configuration not stated) (10 µM)
0: [1] | [2] | [3] | [4] | [5] | [6] | [7] | [8] | [9] | [10]

CS(=O)(=O)Nc1cc(-c2ccc3ncnc(Nc4ccc(F)c(Cl)c4)c3c2)cnc1Cl (2.5 µM)
2: [1] | [7]
4: [5]
0: [2] | [3] | [4] | [6] | [8] | [9] | [10]

Cc1nc(-c2cn3c(n2)-c2ccc(-c4cnn(C(C)(C)C(N)=O)c4)cc2OCC3)n(C(C)C)n1 [Taselisib] (10 µM)
1: [3]
0: [1] | [2] | [4] | [5] | [6] | [7] | [8] | [9] | [10]

Cc1cc(=O)oc2c(C=O)c(O)ccc12 (10 µM)
0: [1] | [2] | [3] | [4] | [5] | [6] | [7] | [8] | [9] | [10]

Nc1cc(C(F)(F)F)c(-c2cc(N3CCOCC3)nc(N3CCOCC3)n2)cn1 [Buparlisib (Hydrochloride)] (2.5 µM)
0: [1] | [2] | [3] | [4] | [5] | [6] | [7] | [8] | [9] | [10]

CC1(C)C(O[C@@H]2OC[C@@H](O)[C@H](O)[C@H]2O)CC[C@]23CC24CC[C@]2(C)[C@@H]([C@@]5(C)CC[C@@H](C(C)(C)O)O5)[C@H](O)C[C@@]2(C)C4C[C@@H](O[C@@H]2O[C@H](CO)[C@@H](O)[C@H](O)[C@H]2O)C13 (some centres not stated) [Astragaloside IV] (10 µM)
0: [1] | [2] | [3] | [4] | [5] | [6] | [7] | [8] | [9] | [10]

O=C1NC(=O)/C(=C/c2ccc3nccnc3c2)S1 (10 µM)
0: [1] | [2] | [3] | [4] | [5] | [6] | [7] | [8] | [9] | [10]

Reprinted from above (2 entries):
Cc1cc(=O)oc2c(C=O)c(O)ccc12 (10 µM)
0: [1] | [2] | [3] | [4] | [5] | [6] | [7] | [8] | [9] | [10]

Nc1cc(C(F)(F)F)c(-c2cc(N3CCOCC3)nc(N3CCOCC3)n2)cn1 [Buparlisib (Hydrochloride)] (2.5 µM)
0: [1] | [2] | [3] | [4] | [5] | [6] | [7] | [8] | [9] | [10]

Next part

Cc1cc(CN2CCN(c3c(Br)cnc4nc(-c5ccc(N6CCN(C)CC6)cc5)[nH]c34)CC2)no1 (2.5 µM)
0: [1] | [2] | [3] | [4] | [5] | [6] | [7] | [8] | [9] | [10]

Cn1nccc1Nc1nccc(-c2ccn([C@H](CO)c3ccc(Cl)c(F)c3)c(=O)c2)n1 [Ravoxertinib hydrochloride] (10 µM)
0: [1] | [2] | [3] | [4] | [5] | [6] | [7] | [8] | [9] | [10]

CC(=O)NC1CC(n2cnc(NC(=O)Cc3ccc4ccccc4c3)c2)C1 (configuration not stated) (10 µM)
0: [1] | [2] | [3] | [4] | [5] | [6] | [7] | [8] | [9] | [10]

O=C(NCCN1CCCC1)c1cc(-c2ccc(CN3CCOCC3)cc2)nc2ccc(F)cc12 (10 µM)
0: [1] | [2] | [3] | [4] | [5] | [6] | [7] | [8] | [9] | [10]

Cc1cccc(-c2[nH]ncc2-c2ccc(F)c(-c3cnn(CCO)c3)c2)n1 (10 µM)
0: [1] | [2] | [3] | [4] | [5] | [6] | [7] | [8] | [9] | [10]

NC(=O)c1nnc(N[C@@H]2CCCC[C@@H]2N)nc1Nc1cccc2cc[nH]c12 (10 µM)
0: [1] | [2] | [3] | [4] | [6] | [7] | [8] | [9] | [10]
2: [5]

CNC(=O)c1ccc(C)c(-n2c(C)cc(OCc3ccc(F)cc3F)c(Br)c2=O)c1 (10 µM)
0: [1] | [2] | [3] | [4] | [5] | [6] | [7] | [8] | [9] | [10]

CNC(=O)c1cc(COc2nnc(Nc3ccc(Cl)cc3)c3ccoc23)ccn1 [Telatinib] (10 µM)
0: [1] | [2] | [3] | [4] | [5] | [6] | [7] | [8] | [9] | [10]

C[C@@]1(c2ncncc2F)NC(=O)c2cc(-c3cn[nH]c3)ccc21 (10 µM)
0: [1] | [2] | [3] | [4] | [5] | [6] | [7] | [8] | [9] | [10]

COc1ccc(-c2ccc3c(N4CCOCC4)nc(N4C[C@@H](C)O[C@@H](C)C4)nc3n2)cc1CO (2.5 µM)
0: [1] | [2] | [3] | [4] | [5] | [6] | [7] | [8] | [9] | [10]

CCC(C)N1c2ccccc2C(=O)N(C)c2cnc(Nc3ccc(C(=O)N4CCC(N5CCN(C)CC5)CC4)cc3OC)nc21 (configuration not stated) (2.5 µM)
0: [1] | [2] | [3] | [4] | [5] | [6] | [7] | [8] | [9] | [10]

CC1CCc2c(cc(Br)c(F)c2Br)N1C=O (configuration not stated) (10 µM)
0: [1] | [2] | [3] | [4] | [5] | [6] | [7] | [8] | [9] | [10]

Cc1[nH]c(/C=C2\C(=O)Nc3ccc(F)cc32)c(C)c1C(=O)N[C@H]1CCN(C(=O)N(C)C)C1 [Vorolanib] (10 µM)
0: [1] | [2] | [3] | [4] | [5] | [6] | [7] | [8] | [9] | [10]

CCc1cc2c(cc1N1CCC(N3CCOCC3)CC1)C(C)(C)c1[nH]c3cc(C#N)ccc3c1C2=O [Alectinib] (10 µM)
0: [1] | [2] | [3] | [4] | [5] | [6] | [7] | [8] | [9] | [10]

CC1=C(C(=O)O)N2C(=O)[C@@H](NC(=O)[C@H](N)C3=CCC=CC3)[C@H]2SC1 [Cephradine] (10 µM)
0: [1] | [2] | [3] | [4] | [5] | [6] | [7] | [8] | [9] | [10]

FC(F)(c1ccc2ncccc2c1)c1nnc2ccc(-c3ccncc3)nn12 (10 µM)
0: [1] | [2] | [3] | [4] | [5] | [6] | [7] | [8] | [9] | [10]

C[C@@H](c1ccc(-c2ccccc2)c(F)c1)c1cc(NC(=N)N2CCOCC2)on1 [Rimacalib] (10 µM)
0: [1] | [2] | [3] | [4] | [5] | [6] | [7] | [8] | [9] | [10]

CC(C)(C)c1nc(-c2cccc(NS(=O)(=O)c3c(F)cccc3F)c2F)c(-c2ccnc(N)n2)s1 [Dabrafenib] (2.5 µM)
0: [1] | [2] | [3] | [4] | [5] | [6] | [7] | [8] | [9] | [10]

C[C@@H]1COCCN1c1cc(C2([S@@](C)(=N)=O)CC2)nc(-c2ccnc3[nH]ccc23)n1 [(S)-Ceralasertib] (10 µM)
0: [1] | [2] | [3] | [4] | [5] | [6] | [7] | [8] | [9] | [10]

Cc1cc(Nc2ncnc3ccc(NC4=NC(C)(C)CO4)cc23)ccc1Oc1ccn2ncnc2c1 [Tucatinib (hemiethanolate)] (2.5 µM)
0: [1] | [2] | [3] | [4] | [5] | [6] | [7] | [8] | [9] | [10]

Cn1cc(-c2ccc3c(c2)CCN3C(=O)Cc2cccc(C(F)(F)F)c2)c2c(N)ncnc21 (2.5 µM)
0: [1] | [2] | [3] | [4] | [5] | [6] | [7] | [8] | [9] | [10]

CCN1CCN(Cc2ccc(Nc3ncc(F)c(-c4cc(F)c5nc(C)n(C(C)C)c5c4)n3)nc2)CC1 [Abemaciclib (methanesulfonate)] (10 µM)
2: [5]
0: [1] | [2] | [3] | [4] | [6] | [7] | [9] | [10]
3: [8]

COc1cc(OC2CCN(C)CC2)ccc1Nc1ncc2c(n1)n(C1CCCC1)c(=O)n2C (10 µM)
0: [1] | [2] | [3] | [4] | [5] | [6] | [7] | [8] | [9] | [10]

CCc1c(C(=O)NNC(=O)C(O)c2cc(F)cc(F)c2)ccc(O)c1C (configuration not stated) (10 µM)
0: [1] | [2] | [3] | [4] | [5] | [6] | [7] | [8] | [9] | [10]

O=Nc1c(-c2c(O)[nH]c3ccc(I)cc23)[nH]c2ccccc12 [5-Iodo-indirubin-3'-monoxime] (10 µM)
0: [1] | [2] | [3] | [4] | [5] | [6] | [8] | [9] | [10]
1: [7]

CC#CC(=O)N1CC[C@@H](n2c(=O)n(-c3ccc(Oc4ccccc4)cc3)c3c(N)ncnc32)C1 [Tirabrutinib (hydrochloride)] (10 µM)
0: [1] | [2] | [3] | [4] | [5] | [6] | [7] | [8] | [9] | [10]

NC(=O)c1nc(Nc2ccccc2)sc1NC(=O)C1CCCCC1 (10 µM)
0: [1] | [2] | [3] | [4] | [5] | [6] | [7] | [8] | [9] | [10]

CCN1CCN(Cc2ccc(Nc3ncc(F)c(-c4cc(F)c5nc(C)n(C(C)C)c5c4)n3)nc2)CC1 [Abemaciclib] (2 µM)
0: [1] | [2] | [3] | [4] | [5] | [6] | [7] | [8] | [9] | [10]

C[C@@H](c1ccc(F)cc1)n1nnc2cnc3ccc(-c4ccc5ocnc5c4)cc3c21 (10 µM)
0: [1] | [2] | [3] | [4] | [5] | [6] | [7] | [8] | [9] | [10]

Nc1ccc(-c2cnc(N)c(-c3ccc(Cl)cc3)c2)cn1 (10 µM)
0: [1] | [2] | [3] | [4] | [5] | [6] | [7] | [8] | [9] | [10]

COc1cc2ncc(-c3ccccc3)nc2cc1OC [Tyrphostin AG1296] (10 µM)
0: [1] | [2] | [3] | [4] | [5] | [6] | [7] | [8] | [9] | [10]

C[C@@H]1CCN(C(=O)CC#N)C[C@@H]1N(C)c1ncnc2[nH]ccc12 [Tofacitinib] (10 µM)
0: [1] | [3] | [4] | [5]

O=C(NOCC(O)CO)c1cc(Br)c(F)c(F)c1Nc1ccc(I)cc1F (configuration not stated) (2.5 µM)
0: [1] | [2] | [3] | [4] | [5] | [6] | [7] | [8] | [9] | [10]

Cc1[nH]c(/C=C2\C(=O)Nc3ccccc32)c(C)c1CCC(=O)O [Orantinib] (10 µM)
0: [1] | [3] | [4] | [5]

C[C@@H]1CCN(C(=O)CC#N)C[C@@H]1N(C)c1ncnc2[nH]ccc12 [Tofacitinib (citrate)] (10 µM)
0: [1] | [3] | [4] | [5]

COc1cc(/C=C/C(=O)NCC(O)c2ccc(O)cc2)ccc1O (configuration not stated) [N-Feruloyloctopamine] (2.5 µM)
0: [1] | [2] | [3] | [4] | [5] | [6] | [7] | [8] | [9] | [10]

NCCNS(=O)(=O)c1cccc2c(Cl)cccc12 [A-3 (hydrochloride)] (10 µM)
0: [1] | [2] | [3] | [4] | [5] | [6] | [7] | [8] | [9] | [10]
